# Among all 140,000 compounds or so, about 4,300 (3.1%) were called active. The inconclusive results got no clear call from the source; some entries with a clear call stand among them for comparison.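 How the source made its calls: active means readout at or below -70, meaning at least 70% loss of cells showing the perinucleolar compartment, a nuclear body marking cancer cells; inconclusive means readout between -30 and a set limit; inactive means the rest.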
# Experiment: High Content Assay for Compounds that inhibit the Assembly of the Perinucleolar Compartment;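 further: plate controls were DMSO wells for no effect and camptothecin positive control wells for full effect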
# Settings: PC3M PTB-GFP, PNC prevalence imaging, 16 h; at 10 µM; hits give low values
# Procedure, shortened: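 Read-out is percentage of cells bearing a perinucleolar compartment, from automated 20x imaging of fixed, Hoechst-stained PC3M PTB-GFP cells. Cells were seeded 4 h, then exposed 16 h to compound (23 nl of library stock) in duplicate plates.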
row,SMILES,"activity change (PNC), negative = inhibition"
1,Cc1[nH]c2ccccc2c1C(=O)CN1C(=O)NC(C)(c2ccc(Cl)cc2Cl)C1=O (stereo not given),inconclusive: -46.5%
2,CC(C)(C)C(=O)NCC12C=CC(O1)C1C(=O)N(c3ccccc3)C(=O)C12 (stereo not given),inactive: 111%
3,O=C(COc1ccccc1F)Nc1ccc(S(=O)(=O)NCc2ccco2)cc1,inconclusive: -65.5%
4,COc1ccc(-c2cc3ccc(OCc4nn[nH]n4)cc3oc2=O)cc1,active: -119%
5,COC(=O)c1scc(C)c1NC(=O)Nc1ccccc1,inconclusive: -66.7%
6,CC(=O)Nc1sc(NC(=O)c2ccc(Cl)cc2)nc1-c1cccs1,inactive: 24.2%
7,CCOC(=O)CSc1ccc2nnc(-c3cccs3)n2n1,inconclusive: -36.5%
8,COc1ccc(OC)c(C(c2nnnn2Cc2ccccc2)N2CCN(C)CC2)c1 (stereo not given),inactive: 4.42%
9,COc1ccc(/C=N/NC(=O)C(=O)NCC2CCCO2)cc1 (stereo not given),inconclusive: -66.8%
10,CCN(CC)C(=O)CSc1nc2ccccc2c(=O)[nH]1,inconclusive: -33.1%
11,Cc1ccccc1NC(=S)C1=C(O)c2sccc2N(C)S1(=O)=O,inconclusive: -34.5%
12,Cc1ccc(-c2ccc(=O)n(CC(=O)N3CCN(c4cc(Cl)ccc4C)CC3)n2)cc1,inactive: 10.9%
13,CN1CCC(=NNc2ccc(S(=O)(=O)N3CCOCC3)cc2[N+](=O)[O-])CC1,inactive: -12.4%
14,Cc1ccc(CNc2oc(C)nc2C#N)cc1,active: -84.8%
15,N=C1/C(=C/c2cccs2)C(=O)N=C2SN=C(SCc3ccccc3)N12,inactive: 15.3%
16,CC(C(=O)N1CCCCC1)n1sc2ccccc2c1=O (stereo not given),inactive: 32.7%
17,Cc1ccsc1C1C2=C(CCCC2=O)Nc2ncnn21 (stereo not given),inconclusive: -37.7%
18,Cc1ccc(-n2c(N)c(-c3nc4ccccc4n3C)sc2=S)cc1,inconclusive: -52.3%
19,O=C(CNC(=O)c1cccs1)c1ccc(F)cc1,inactive: 66.8%
20,Cc1ccnc(NC(=O)CSc2cc(=O)n(C)c3ccccc23)c1,inconclusive: -74.4%
21,CCCn1c2ccccc2c2nnc(SCC(=O)OC)nc21,inconclusive: -56.9%
22,O=S(=O)(NC1CC2CCC1C2)c1ccc2c(c1)OCCO2 (stereo not given),inactive: 10.7%
23,Cc1csc(NC(=O)CSc2nnc(NC(=O)COc3ccc(Cl)cc3)s2)n1,inconclusive: -56.8%

# Not a retest: an excerpt of the list.
row,SMILES,"activity change (PNC), negative = inhibition"
14,Cc1ccc(CNc2oc(C)nc2C#N)cc1,active: -84.8%
15,N=C1/C(=C/c2cccs2)C(=O)N=C2SN=C(SCc3ccccc3)N12,inactive: 15.3%
16,CC(C(=O)N1CCCCC1)n1sc2ccccc2c1=O (stereo not given),inactive: 32.7%

# Following part.

row,SMILES,"activity change (PNC), negative = inhibition"
1,CC1(C)Cc2nc3oc4c(N(CCO)Cc5ccccc5)ncnc4c3cc2CO1,inactive: -21.9%
2,O=C1CC(c2ccccc2)n2nc(NS(=O)(=O)c3ccccc3)nc2N1 (stereo not given),inconclusive: -74.3%
3,Cc1ccc(/C=N/NC(=O)CSCc2ccc(Cl)cc2)cc1,inconclusive: -46.1%
4,CCOc1ccc(C(=O)Nc2cc(OC)ccc2OC)cc1,active: -127%
5,O=C(NCCO)/C(=C\c1cccs1)NC(=O)c1cccs1,inconclusive: -47.5%
6,COC(=O)c1c(N)sc(C(=O)N2CCOCC2)c1C,inconclusive: -50.4%
7,CCOC(=O)C1CCN(CC(=O)c2c(C)[nH]c3ccccc23)CC1,inconclusive: -52.8%
8,CC(C)C1Oc2ccccc2N(CC(=O)N(Cc2ccncc2)Cc2ccco2)C1=O (stereo not given),inconclusive: -32.5%
9,COc1ccc(C2=NN(CC(=O)NCc3ccco3)C(=O)CC2)cc1,inactive: 1.79%
10,Fc1ccc(NC(=S)NCCc2ccc(Cl)cc2)cc1,inactive: 2.87%
11,COc1ccc2c(c1)c(C(=O)CN1CCC3(CC1)OCCO3)c(C)n2C,inconclusive: -68.9%
12,O=C(N/N=C/c1c(F)cccc1Cl)c1ccc(Cn2cc(Br)cn2)o1,active: -114%
13,OC(CNCCc1ccccc1)c1ccccc1 (stereo not given),inactive: 16.1%
14,c1ccc2[nH]c(CSc3nc4ccccc4s3)nc2c1,inconclusive: -42.2%
15,CSc1ccccc1C(=O)NC1CCCCC1,inconclusive: -32.2%
16,O=C(NCCC1=CCCCC1)C1CCN(S(=O)(=O)c2ccc(-n3cnnn3)cc2)CC1,inactive: 13%
17,COC(=O)c1[nH]c2ccccc2c1NC(=O)CN1CCN(c2cccc(OC)c2)C(C)C1 (stereo not given),inconclusive: -34.6%
18,COc1ccc(C2CC(=O)c3c(C)nc(N4CCN(c5ccccc5)CC4)nc3C2)cc1 (stereo not given),inactive: -6.98%
19,Cn1c(=O)c2cc(S(=O)(=O)NC(C(=O)NCc3cccnc3)c3ccccc3)ccc2n(C)c1=O (stereo not given),inconclusive: -33.2%
20,COC(=O)c1cn[nH]c1N,inconclusive: -54.6%
21,COc1ccc2cc(C3CC(c4ccco4)=NN3S(=O)(=O)c3ccccc3)c(Cl)nc2c1 (stereo not given),inconclusive: -32.9%
22,CCOC(=O)C1=C(C)C(c2ccccc2OC)NC(=S)N1 (stereo not given),inconclusive: -42.1%
23,Cc1cc(=O)n2c(nc3ccccc32)[nH]1,inconclusive: -67.5%

row,SMILES,"activity change (PNC), negative = inhibition"
1,Cc1onc(-c2ccccc2)c1C(=O)N1CCN(S(=O)(=O)c2ccc3c(c2)OCCO3)CC1,inconclusive: -36.5%
2,CC(C)n1c(NCc2c[nH]c3ccccc23)nc2ccccc21,active: -100%
3,CCn1c(=O)c(C(=O)CN(C)Cc2cccc(OC)c2OC)c(N)n(Cc2ccccc2)c1=O,inconclusive: -36.3%
4,Cc1nc(SCC(=O)Nc2ccccc2C(F)(F)F)c(C#N)c(C)c1CC(=O)c1ccc(Br)cc1,inconclusive: -30%
5,CCCCCCn1c(SCC(=O)c2ccccc2)nc2c1c(=O)[nH]c(=O)n2C,inconclusive: -47%
6,COC(=O)c1ccc2c(c1)S(=O)(=O)NC(=NCCCN1CCOCC1)S2,active: -119%
7,O=C(CN(Cc1ccccc1Cl)C(=O)c1ccc(CN2CCOCC2)o1)NCc1ccccc1,inconclusive: -46.7%
8,Cc1ccc2c(c1)N(CC(=O)N(Cc1ccccn1)Cc1ccco1)C(=O)C(C(C)C)O2 (stereo not given),inconclusive: -44%
9,CCOC(=O)COc1cccc2c(=O)n(CC(=O)N3CCc4ccccc43)ccc12,active: -111%
10,CCOc1ccccc1NC1=C(Cl)C(=O)N(c2ccc(OC)cc2)C1=O,inactive: 14.5%
11,COc1cc(S(=O)(=O)N(Cc2ccccn2)Cc2ccccc2Cl)ccc1-n1cnnn1,inconclusive: -32.8%
12,c1cnc2ccc(C(c3nnnn3C3CCCC3)N3CCN4CCCC4C3)cc2c1 (stereo not given),inactive: 64.8%
13,CC1(C)Cc2c(C#N)c(NCCN3CCOCC3)nc(-c3ccco3)c2CO1,inconclusive: -41.1%
14,O=C(O)CCSc1nnc(-c2ccncc2)n1-c1ccccc1,inactive: -19.4%
15,CCCC/C(C)=N/NC(=O)CN(c1ccc(Br)cc1)S(=O)(=O)c1ccccc1,inconclusive: -79.3%
16,CCOC(=O)c1sc(-c2ccc(F)cc2)cc1NC(=O)Nc1ccccc1OC,inconclusive: -71.7%
17,Cc1ccccc1NS(=O)(=O)c1ccc(F)cc1,active: -97.4%
18,C=CCn1c(SCC(=O)c2cc(C)n(C(C)COC)c2C)nc2sc(C)c(C)c2c1=O (stereo not given),inconclusive: -59.4%
19,CCNCC(O)COCC(O)CNCC (stereo not given),inactive: 9.69%
20,N#Cc1cc2c(nc1SCC(=O)O)CCCC2,inconclusive: -38.9%
21,COc1ccc(OCc2nn3c(-c4ccco4)nnc3s2)cc1,inconclusive: -37.2%
22,Cc1cc(C)n(-c2ccc(C(=O)C(C#N)c3nc4ccccc4n3C)cc2)n1 (stereo not given),inconclusive: -55.9%
23,CCn1c(N2CCN(CC(=O)c3c(C)n(C)c4ccccc34)CC2)nc2c1c(=O)[nH]c(=O)n2C,inconclusive: -66.1%

# Laid out differently: 2 of the compounds above
row	SMILES	activity change (PNC), negative = inhibition
15	CCCC/C(C)=N/NC(=O)CN(c1ccc(Br)cc1)S(=O)(=O)c1ccccc1	inconclusive: -79.3%
16	CCOC(=O)c1sc(-c2ccc(F)cc2)cc1NC(=O)Nc1ccccc1OC	inconclusive: -71.7%

# Additional entries

row,SMILES,"activity change (PNC), negative = inhibition"
1,O=C(COc1ccccc1)NCC(=O)N/N=C/c1ccco1,active: -121%
2,CCOc1cc(NC(=S)NC)c(OCC)cc1NC(=O)c1ccco1,inconclusive: -33%
3,N#C/C(=C\c1c[nH]c2ccccc12)C(=O)Nc1ncc(Cc2ccc(Cl)cc2Cl)s1,inactive: -29.9%
4,CCCOc1c(OC)cccc1C1CC(=O)Nc2cc3c(cc21)OCCO3 (stereo not given),inactive: 22.1%
5,COc1cc(/C=C/C(=O)O)cc(S(=O)(=O)Nc2ccc(F)cc2)c1OC,inconclusive: -36.2%
6,COc1ccccc1C1C(C(=O)c2cc3ccccc3o2)=C(O)C(=O)N1CCN(C)C (stereo not given),inactive: 16.1%
7,c1ccc(OCCOCCSc2ncccn2)cc1,inconclusive: -40.6%
8,COC(=O)Cc1nnc(NC(=O)C(C)C)s1,inconclusive: -61%
9,CC1(C)CC(=O)C2=C(C1)N(c1ccc(F)cc1)C(N)=C(C#N)C2c1cccs1 (stereo not given),inactive: 56.1%
10,Cc1ccc(Cc2cnc(NC(=O)/C(C#N)=C/c3ccc(-c4ccc([N+](=O)[O-])cc4)o3)s2)cc1,inconclusive: -47.3%
11,CC(=O)Nc1c(C(=O)O)oc2ccc(Cl)cc12,inconclusive: -37.4%
12,Cc1ccccc1CS(=O)(=O)CCC(=O)N1CCN(c2ccc(N3CCOCC3)nn2)CC1,inactive: 24.3%
13,CCOC(=O)C(C(=O)OCC)[C@@H]1CS(=O)(=O)C[C@H]1C(C(=O)OCC)C(=O)OCC,inconclusive: -34.6%
14,COc1ccccc1NC(C#N)c1ccccc1OCc1ccccc1 (stereo not given),inactive: -8.74%
15,Cc1ccc(-n2ncc3c(NCc4ccco4)ncnc32)c(C)c1,inconclusive: -34.2%
16,COc1ccc(NC(=O)CCSc2cc(C)c3ccccc3n2)cc1,inactive: -17.2%
17,Cc1ccc(S(=O)(=O)N2CCC(=O)N(C(COCc3ccc(Cl)cc3)C(C)C)CC2)cc1 (stereo not given),active: -119%
18,N#Cc1cccc(NC(=O)CN2NS(=O)(=O)c3ccccc3C2=O)c1,inactive: 44.9%
19,CN(C)S(=O)(=O)c1ccc2oc(SCC(=O)NCC(F)(F)F)nc2c1,inconclusive: -32.5%
20,O=C(Nc1ccc(N2C(=O)C3C4C=CC(C4)C3C2=O)cc1)Nc1nncs1 (stereo not given),inconclusive: -47.7%
21,O=C(NC(C(=O)N1CCCC1C(=O)O)=C1CCCCC1)c1ccccc1 (stereo not given),inconclusive: -44.2%

# From PubChem BioAssay AID2417 (National Center for Advancing Translational Sciences (NCATS), 2010)
